Data as given in PubChem BioAssay AID743121 (NCATS, 2013).
Here is a random part of about 26,000 reagents tested. Over the whole deposit, 167 (0.63%) were called active. 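Calls are per gene from RSA p-values that are not deposited; an individual active-marked siRNA can sensitise only weakly.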 Entries without a mark were called inactive. The numbers tell different reagents against one gene apart. Not all columns of the deposit are shown. No sequences are given here.

- Test: 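Partners whose loss is lethal together with topoisomerase I blockade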 (primary screen)
- Cells: MDA-MB-231 cells, a human breast cancer line
- Reagents: single siRNA against human genes, 20 nM siRNA (0.8 pmol per well)
- Timing: 120 h (drug added 48 h after transfection, read 72 h later)
- Treatment: camptothecin 20 nM (about EC30) for 72 h; vehicle 0.1% DMSO in parallel plates
- Detection: 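Cell viability by ATP luminescence (CellTiter-Glo) as % of non-targeting siRNA wells, and the log2 ratio of viability without drug over viability with camptothecin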
- Reading the numbers: log2 vehicle/camptothecin viability: higher = stronger sensitisation to camptothecin
- Rule for the call: 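Each gene scored by redundant siRNA activity (RSA) over its individual siRNA ratios; a gene is called active at p < 0.001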

| gene knocked down | reagent no. | log2 vehicle/camptothecin viability |
| --- | --- | --- |
| METAP2 (methionyl aminopeptidase 2) | 1 | -0.152 |
| METAP2 (methionyl aminopeptidase 2) | 2 | -0.0805 |
| METAP2 (methionyl aminopeptidase 2) | 3 | -0.254 |
| METAP2 (methionyl aminopeptidase 2) | 4 | -0.614 |
| TAPBPL (TAP binding protein like) | 1 | -0.11 |
| TAPBPL (TAP binding protein like) | 2 | 1.11 |
| TAPBPL (TAP binding protein like) | 3 | -0.24 |
| TAPBPL (TAP binding protein like) | 4 | -0.0511 |
| RNF6 (ring finger protein 6) | 1 | -0.142 |
| RNF6 (ring finger protein 6) | 2 | -0.147 |
| RNF6 (ring finger protein 6) | 3 | -0.536 |
| ACKR4 (atypical chemokine receptor 4) | 1 | -0.2 |
| ACKR4 (atypical chemokine receptor 4) | 2 | -0.0503 |
| ACKR4 (atypical chemokine receptor 4) | 3 | -0.375 |
| ACKR4 (atypical chemokine receptor 4) | 4 | 0.00246 |
| GPR137 (G protein-coupled receptor 137) | 1 | -0.134 |
| GPR137 (G protein-coupled receptor 137) | 2 | -0.364 |
| GPR137 (G protein-coupled receptor 137) | 3 | -0.515 |
| GPR137 (G protein-coupled receptor 137) | 4 | 0.362 |
| CENPN (centromere protein N) | 1 | -0.137 |
| CENPN (centromere protein N) | 2 | -0.435 |
| CENPN (centromere protein N) | 3 | -0.143 |
| CENPN (centromere protein N) | 4 | -0.207 |
| CENPN (centromere protein N) | 5 | -0.666 |
| CENPN (centromere protein N) | 6 | 0.147 |
| CENPN (centromere protein N) | 7 | 0.283 |
| CENPN (centromere protein N) | 8 | -0.435 |
| BCL7A (BAF chromatin remodeling complex subunit BCL7A) | 1 | 1.46 |
| BCL7A (BAF chromatin remodeling complex subunit BCL7A) | 2 | -0.265 |
| BCL7A (BAF chromatin remodeling complex subunit BCL7A) | 3 | -0.552 |
| BCL7A (BAF chromatin remodeling complex subunit BCL7A) | 4 | 0.287 |
| SFRP4 (secreted frizzled related protein 4) | 1 | 0.607 |
| SFRP4 (secreted frizzled related protein 4) | 2 | 0.19 |
| SFRP4 (secreted frizzled related protein 4) | 3 | 0.0495 |
| DGCR2 (DiGeorge syndrome critical region gene 2) | 1 | -0.855 |
| DGCR2 (DiGeorge syndrome critical region gene 2) | 2 | 0.0652 |
| DGCR2 (DiGeorge syndrome critical region gene 2) | 3 | 0.49 |
| DGCR2 (DiGeorge syndrome critical region gene 2) | 4 | -0.126 |
| UGP2 (UDP-glucose pyrophosphorylase 2) | 1 | -0.429 |
| UGP2 (UDP-glucose pyrophosphorylase 2) | 2 | -0.33 |
| UGP2 (UDP-glucose pyrophosphorylase 2) | 3 | -0.0738 |
| UGP2 (UDP-glucose pyrophosphorylase 2) | 4 | -0.58 |
| CNTNAP2 (contactin associated protein 2) | 1 | -0.236 |
| CNTNAP2 (contactin associated protein 2) | 2 | -0.118 |
| CNTNAP2 (contactin associated protein 2) | 3 | 0.315 |
| CNTNAP2 (contactin associated protein 2) | 4 | -0.334 |
| USP13 (ubiquitin specific peptidase 13) | 1 | 0.0172 |
| USP13 (ubiquitin specific peptidase 13) | 2 | -0.197 |
| USP13 (ubiquitin specific peptidase 13) | 3 | -0.428 |
| USP13 (ubiquitin specific peptidase 13) | 4 | 0.865 |
| TNFAIP6 (TNF alpha induced protein 6) | 1 | -0.263 |
| TNFAIP6 (TNF alpha induced protein 6) | 2 | -0.325 |
| TNFAIP6 (TNF alpha induced protein 6) | 3 | -0.491 |
| PFN1 (profilin 1) | 1 | -0.42 |
| PFN1 (profilin 1) | 2 | -0.422 |
| PFN1 (profilin 1) | 3 | -0.651 |
| PFN1 (profilin 1) | 4 | 0.0892 |
| CCSER2 (coiled-coil serine rich protein 2) | 1 | -0.275 |
| CCSER2 (coiled-coil serine rich protein 2) | 2 | -0.421 |
| CCSER2 (coiled-coil serine rich protein 2) | 3 | 0.125 |
| CCSER2 (coiled-coil serine rich protein 2) | 4 | 1.91 |
| WNK3 (WNK lysine deficient protein kinase 3) | 1 | 0.0201 |
| WNK3 (WNK lysine deficient protein kinase 3) | 2 | -0.186 |
| WNK3 (WNK lysine deficient protein kinase 3) | 3 | -0.205 |
| WNK3 (WNK lysine deficient protein kinase 3) | 4 | 0.935 |
| NRBP1 (nuclear receptor binding protein 1) | 1 | -0.541 |
| NRBP1 (nuclear receptor binding protein 1) | 2 | -0.217 |
| NRBP1 (nuclear receptor binding protein 1) | 3 | 0.323 |
| NRBP1 (nuclear receptor binding protein 1) | 4 | -0.0938 |
| TDP2 (tyrosyl-DNA phosphodiesterase 2) | 1 | -0.0422 |
| TDP2 (tyrosyl-DNA phosphodiesterase 2) | 2 | -0.802 |
| TDP2 (tyrosyl-DNA phosphodiesterase 2) | 3 | -0.0228 |
| TDP2 (tyrosyl-DNA phosphodiesterase 2) | 4 | 0.185 |
| NEURL2 (neuralized E3 ubiquitin protein ligase 2) | 1 | 0.205 |
| NEURL2 (neuralized E3 ubiquitin protein ligase 2) | 2 | 0.0452 |
| NEURL2 (neuralized E3 ubiquitin protein ligase 2) | 3 | -0.473 |
| NEURL2 (neuralized E3 ubiquitin protein ligase 2) | 4 | -0.18 |
| XRCC4 (X-ray repair cross complementing 4) | 1 | 0.243 |
| XRCC4 (X-ray repair cross complementing 4) | 2 | -0.375 |
| XRCC4 (X-ray repair cross complementing 4) | 3 | -0.217 |
| SIRPG (signal regulatory protein gamma) | 1 | -0.199 |
| SIRPG (signal regulatory protein gamma) | 2 | -0.146 |
| SIRPG (signal regulatory protein gamma) | 3 | -0.169 |
| CAPN12 (calpain 12) | 1 | -0.334 |
| CAPN12 (calpain 12) | 2 | -0.615 |
| CAPN12 (calpain 12) | 3 | 0.198 |
| CAPN12 (calpain 12) | 4 | -0.275 |

6 consecutive entries already listed, quoted:
| gene knocked down | reagent no. | log2 vehicle/camptothecin viability |
| --- | --- | --- |
| BCL7A (BAF chromatin remodeling complex subunit BCL7A) | 1 | 1.46 |
| BCL7A (BAF chromatin remodeling complex subunit BCL7A) | 2 | -0.265 |
| BCL7A (BAF chromatin remodeling complex subunit BCL7A) | 3 | -0.552 |
| BCL7A (BAF chromatin remodeling complex subunit BCL7A) | 4 | 0.287 |
| SFRP4 (secreted frizzled related protein 4) | 1 | 0.607 |
| SFRP4 (secreted frizzled related protein 4) | 2 | 0.19 |
